Measurements from PMC3328499 (PLoS ONE, 2012).
These are yes or no findings as the source states them, for the method shown. Some results given as binding are weak or reduced against the parent protein; the word gives no strength.

Target: MalK with a His6-tag at the C-terminus (E. coli K12) (UniProt P68187)
Assay: co-purification; MalF, MalG and MalK-His6 co-expressed in E. coli BL21; membranes solubilised in 1% DDM; Ni-NTA Sepharose (imidazole gradient) in 0.01% DDM, then gel filtration (Superdex 200)

## MalF (from UniProt P02916 1-514)
  binding: binds
